Data published in publication PMC6240084.
These are yes or no findings as the source states them, for the method shown. In cells and extracts the contact can be indirect. Some binding calls cover weakened binding; strength is not graded here.

Protein sequences, listed by entry. Tags and fused reporters are not part of them. Lines headed by an entry give the natural chain unless they say otherwise; changes in a name come on top. Chains listed by the source or under a name are the forms on record and can include a tag or linker.
UniProt P0DMV9: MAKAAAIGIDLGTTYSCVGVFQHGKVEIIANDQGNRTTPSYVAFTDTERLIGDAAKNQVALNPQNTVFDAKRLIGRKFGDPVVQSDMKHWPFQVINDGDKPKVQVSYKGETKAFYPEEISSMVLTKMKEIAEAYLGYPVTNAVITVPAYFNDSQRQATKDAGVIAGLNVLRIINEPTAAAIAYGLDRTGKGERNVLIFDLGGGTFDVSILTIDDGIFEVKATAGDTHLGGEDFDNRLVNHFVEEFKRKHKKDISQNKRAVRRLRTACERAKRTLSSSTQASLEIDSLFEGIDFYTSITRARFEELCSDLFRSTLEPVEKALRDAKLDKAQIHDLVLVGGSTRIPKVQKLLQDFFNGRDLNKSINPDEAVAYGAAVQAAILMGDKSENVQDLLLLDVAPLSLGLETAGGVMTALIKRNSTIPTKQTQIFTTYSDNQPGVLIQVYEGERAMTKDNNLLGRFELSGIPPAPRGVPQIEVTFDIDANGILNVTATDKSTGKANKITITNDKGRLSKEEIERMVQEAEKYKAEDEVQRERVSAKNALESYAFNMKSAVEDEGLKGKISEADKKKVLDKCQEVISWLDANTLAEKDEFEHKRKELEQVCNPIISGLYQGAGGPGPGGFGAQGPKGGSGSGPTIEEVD
UniProt Q9UNE7: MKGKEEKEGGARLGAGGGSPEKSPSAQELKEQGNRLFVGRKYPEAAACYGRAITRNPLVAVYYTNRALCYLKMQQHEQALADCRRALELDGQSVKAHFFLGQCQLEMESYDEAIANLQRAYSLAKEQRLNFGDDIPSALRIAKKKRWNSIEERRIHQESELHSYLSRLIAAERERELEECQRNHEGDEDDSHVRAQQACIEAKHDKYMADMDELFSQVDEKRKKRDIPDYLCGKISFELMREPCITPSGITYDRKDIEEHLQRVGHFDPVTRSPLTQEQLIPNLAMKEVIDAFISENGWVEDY
UniProt P10275: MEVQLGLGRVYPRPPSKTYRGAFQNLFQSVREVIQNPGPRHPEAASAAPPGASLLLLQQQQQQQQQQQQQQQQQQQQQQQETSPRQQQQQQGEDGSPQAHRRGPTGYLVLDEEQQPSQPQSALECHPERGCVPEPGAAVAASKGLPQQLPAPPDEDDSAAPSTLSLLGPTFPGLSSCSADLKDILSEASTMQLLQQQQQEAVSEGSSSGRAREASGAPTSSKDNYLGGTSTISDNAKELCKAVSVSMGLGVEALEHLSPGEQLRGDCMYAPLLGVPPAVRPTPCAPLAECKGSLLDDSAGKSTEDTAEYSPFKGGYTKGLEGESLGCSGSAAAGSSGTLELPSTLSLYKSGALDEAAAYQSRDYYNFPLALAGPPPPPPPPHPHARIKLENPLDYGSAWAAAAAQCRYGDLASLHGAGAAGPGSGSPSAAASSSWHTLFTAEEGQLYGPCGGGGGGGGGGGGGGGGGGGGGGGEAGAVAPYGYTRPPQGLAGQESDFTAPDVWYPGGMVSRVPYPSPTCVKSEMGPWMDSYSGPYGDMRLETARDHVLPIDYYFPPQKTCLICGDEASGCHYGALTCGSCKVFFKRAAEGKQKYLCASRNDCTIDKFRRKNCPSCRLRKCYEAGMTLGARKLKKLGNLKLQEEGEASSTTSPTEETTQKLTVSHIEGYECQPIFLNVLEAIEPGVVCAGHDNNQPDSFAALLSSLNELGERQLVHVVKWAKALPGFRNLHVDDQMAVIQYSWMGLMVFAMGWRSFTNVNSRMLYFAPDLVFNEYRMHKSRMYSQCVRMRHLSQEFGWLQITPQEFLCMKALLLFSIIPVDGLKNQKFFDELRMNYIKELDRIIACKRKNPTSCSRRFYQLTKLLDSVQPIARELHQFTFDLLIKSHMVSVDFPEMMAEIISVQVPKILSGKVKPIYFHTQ
AR-V7 (P10275-3, form named): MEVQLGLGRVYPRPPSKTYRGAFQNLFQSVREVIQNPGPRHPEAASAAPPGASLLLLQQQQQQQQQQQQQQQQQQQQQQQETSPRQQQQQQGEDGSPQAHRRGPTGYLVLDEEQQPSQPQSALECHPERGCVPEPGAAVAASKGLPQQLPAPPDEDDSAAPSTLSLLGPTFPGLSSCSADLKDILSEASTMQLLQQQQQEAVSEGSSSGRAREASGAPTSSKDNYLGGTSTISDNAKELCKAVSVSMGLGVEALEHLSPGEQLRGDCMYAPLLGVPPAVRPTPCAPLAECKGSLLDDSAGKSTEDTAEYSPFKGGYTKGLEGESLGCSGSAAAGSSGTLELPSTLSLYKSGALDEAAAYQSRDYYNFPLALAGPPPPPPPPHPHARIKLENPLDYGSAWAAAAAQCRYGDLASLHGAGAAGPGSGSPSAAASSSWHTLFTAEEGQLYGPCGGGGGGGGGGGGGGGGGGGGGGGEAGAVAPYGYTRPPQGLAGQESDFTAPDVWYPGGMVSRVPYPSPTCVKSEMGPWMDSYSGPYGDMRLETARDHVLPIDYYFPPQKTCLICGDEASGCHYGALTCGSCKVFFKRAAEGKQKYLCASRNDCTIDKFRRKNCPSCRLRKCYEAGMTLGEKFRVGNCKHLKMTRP

Key:
[1] = biological target: HSP70 (HSPA1B, OriGene, Catalog# SC116767) (UniProt P0DMV9); assay: co-IP; 293 cells co-transfected with HSP70 and AR-V7 (or AR-FL) with or without Flag-STUB1 for 3 days; whole cell lysates immunoprecipitated with anti-HSP70 antibody; western blot
[2] = biological target: Flag-STUB1 (UniProt Q9UNE7); assay: co-IP; 293 cells transiently transfected with Flag-STUB1 or HSP70 with or without AR-FL, AR-V1, AR-V3, AR-V7, AR-V9 or AR-V12 for 3 days; whole cell lysates (1500 µg) immunoprecipitated with anti-Flag or anti-HSP70 antibody and protein A/G agarose overnight; washed with 10 mM HEPES pH 7.9, 1 mM EDTA, 150 mM NaCl, 1% Nonidet P-40; western blot
[3] = biological target: HSP70 (HSPA1B, OriGene, Catalog# SC116767) (UniProt P0DMV9); assay: as above
[4] = biological target: Flag-STUB1 (UniProt Q9UNE7); assay: co-IP; 293 cells co-transfected with Flag-STUB1, AR-V7 and HA-Ub with or without HSP70 for 3 days; whole cell lysates immunoprecipitated with anti-Flag antibody; western blot; also AR-V7, HSP70 and Flag-STUB1 overexpressed and cells treated with APO or VER overnight (the inhibitors increased the binding)

binding [1]	binding [2]	binding [3]	binding [4]	Substance
binds	binds	binds	–	AR-FL (full-length AR) (from UniProt P10275 1-920) (receptor)
binds	binds	binds	binds	AR-V7 (from UniProt P10275-3 1-644)
–	–	binds	–	Flag-STUB1 (from UniProt Q9UNE7 1-303) (enzyme)
